Some of the results follow.
Columns and labels:
Assay in all cases: log2 fold change, soluble protein after heating vs DMSO (PISA); higher = thermal stabilisation; K562 lysate, 10 uM; active = over 0.2 and 3.5 SD of the protein, either way, in both replicates (recomputed)
lapatinib = compound: CS(=O)(=O)CCNCc1ccc(-c2ccc3ncnc(Nc4ccc(OCc5cccc(F)c5)c(Cl)c4)c3c2)o1 [lapatinib]
Procedure, shortened: (§1)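 A 30 min treatment with 10 μM compound was applied to crude K562 extract at 1 mg/mL protein in PBS pH 7.4 with 1 mM MgCl2. Heating for 3 min spanned 48°C-58°C, after which aliquots were pooled, adjusted to 0.5% NP-40 at 4°C and spun at 21,000xg for 90 min. TMTpro 16plex LC-MS/MS of the supernatant, with channel sums equalised, gave values recorded as log-two fold change in thermal stability against solvent controls, from duplicates.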

Amino acid sequences for entries named in this document (tags omitted). A change or cut given only in a name is not applied to a line headed by its entry.
UniProt Q9UI14, whole entry, looked up: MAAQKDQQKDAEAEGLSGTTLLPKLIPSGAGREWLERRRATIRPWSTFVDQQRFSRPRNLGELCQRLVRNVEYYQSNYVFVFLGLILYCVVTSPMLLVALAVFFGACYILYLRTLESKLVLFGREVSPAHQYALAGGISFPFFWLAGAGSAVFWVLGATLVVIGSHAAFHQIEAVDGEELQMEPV
UniProt P51149, whole entry, looked up: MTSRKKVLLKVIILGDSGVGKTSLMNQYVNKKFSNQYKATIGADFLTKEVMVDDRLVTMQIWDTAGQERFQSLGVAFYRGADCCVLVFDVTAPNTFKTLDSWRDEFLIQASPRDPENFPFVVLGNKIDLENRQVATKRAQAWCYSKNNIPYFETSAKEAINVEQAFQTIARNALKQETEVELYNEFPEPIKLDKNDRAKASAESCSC
UniProt Q15032: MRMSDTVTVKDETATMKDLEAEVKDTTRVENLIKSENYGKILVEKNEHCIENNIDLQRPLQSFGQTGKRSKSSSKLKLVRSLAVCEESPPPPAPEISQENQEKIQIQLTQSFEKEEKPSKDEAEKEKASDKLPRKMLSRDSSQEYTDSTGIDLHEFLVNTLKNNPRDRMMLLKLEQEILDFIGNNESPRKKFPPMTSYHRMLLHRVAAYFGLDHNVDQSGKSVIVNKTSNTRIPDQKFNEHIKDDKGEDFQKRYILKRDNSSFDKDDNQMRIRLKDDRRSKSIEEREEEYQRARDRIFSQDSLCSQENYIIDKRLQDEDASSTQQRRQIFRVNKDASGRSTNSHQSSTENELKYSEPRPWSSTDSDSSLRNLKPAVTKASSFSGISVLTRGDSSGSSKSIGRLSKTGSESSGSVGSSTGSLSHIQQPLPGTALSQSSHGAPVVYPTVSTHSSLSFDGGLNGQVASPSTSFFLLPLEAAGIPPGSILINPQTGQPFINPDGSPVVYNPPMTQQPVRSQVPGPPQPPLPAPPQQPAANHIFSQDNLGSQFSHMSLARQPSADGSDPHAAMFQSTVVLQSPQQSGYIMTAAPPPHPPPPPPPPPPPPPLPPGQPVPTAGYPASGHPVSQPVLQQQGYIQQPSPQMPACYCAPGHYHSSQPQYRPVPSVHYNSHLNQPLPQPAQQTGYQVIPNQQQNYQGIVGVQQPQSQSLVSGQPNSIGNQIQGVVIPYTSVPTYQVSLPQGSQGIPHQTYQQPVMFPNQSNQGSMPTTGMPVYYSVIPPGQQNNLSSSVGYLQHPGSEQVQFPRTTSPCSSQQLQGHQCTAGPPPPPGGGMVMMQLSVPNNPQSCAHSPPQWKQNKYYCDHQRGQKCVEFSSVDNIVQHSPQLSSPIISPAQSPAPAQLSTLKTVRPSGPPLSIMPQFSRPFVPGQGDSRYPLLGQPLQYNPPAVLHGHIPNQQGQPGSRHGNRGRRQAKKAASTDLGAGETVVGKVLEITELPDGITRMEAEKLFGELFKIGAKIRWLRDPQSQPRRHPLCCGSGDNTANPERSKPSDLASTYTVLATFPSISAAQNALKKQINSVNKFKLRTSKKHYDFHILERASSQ
UniProt Q9H082: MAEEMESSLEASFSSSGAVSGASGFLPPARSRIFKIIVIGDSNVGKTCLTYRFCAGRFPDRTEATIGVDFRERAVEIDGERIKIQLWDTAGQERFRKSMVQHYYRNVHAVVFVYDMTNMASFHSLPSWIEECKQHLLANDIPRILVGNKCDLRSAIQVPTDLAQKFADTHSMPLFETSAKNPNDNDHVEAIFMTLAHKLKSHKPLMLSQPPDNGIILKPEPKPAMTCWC
UniProt Q92696: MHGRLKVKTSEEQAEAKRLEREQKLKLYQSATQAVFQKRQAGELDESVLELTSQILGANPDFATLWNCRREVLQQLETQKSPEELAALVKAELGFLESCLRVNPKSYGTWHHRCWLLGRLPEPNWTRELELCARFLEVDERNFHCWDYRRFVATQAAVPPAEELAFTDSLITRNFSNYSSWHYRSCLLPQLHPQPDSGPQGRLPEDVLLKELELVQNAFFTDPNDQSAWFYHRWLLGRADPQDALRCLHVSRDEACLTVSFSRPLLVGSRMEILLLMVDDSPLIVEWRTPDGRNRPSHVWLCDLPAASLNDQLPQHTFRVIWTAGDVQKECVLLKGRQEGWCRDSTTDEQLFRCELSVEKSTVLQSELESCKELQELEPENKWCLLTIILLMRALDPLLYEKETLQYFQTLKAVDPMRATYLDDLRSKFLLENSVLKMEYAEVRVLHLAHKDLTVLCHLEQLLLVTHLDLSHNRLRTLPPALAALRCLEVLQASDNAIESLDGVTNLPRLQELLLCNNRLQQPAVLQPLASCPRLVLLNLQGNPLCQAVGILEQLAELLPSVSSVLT
UniProt Q96S21: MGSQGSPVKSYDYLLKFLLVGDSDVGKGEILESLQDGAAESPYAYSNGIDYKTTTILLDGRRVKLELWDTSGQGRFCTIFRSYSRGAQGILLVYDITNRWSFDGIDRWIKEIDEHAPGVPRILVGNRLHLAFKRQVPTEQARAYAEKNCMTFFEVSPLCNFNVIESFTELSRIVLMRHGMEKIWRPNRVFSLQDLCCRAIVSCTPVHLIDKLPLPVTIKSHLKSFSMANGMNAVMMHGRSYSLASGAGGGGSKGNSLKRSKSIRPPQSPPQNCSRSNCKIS
UniProt Q13636: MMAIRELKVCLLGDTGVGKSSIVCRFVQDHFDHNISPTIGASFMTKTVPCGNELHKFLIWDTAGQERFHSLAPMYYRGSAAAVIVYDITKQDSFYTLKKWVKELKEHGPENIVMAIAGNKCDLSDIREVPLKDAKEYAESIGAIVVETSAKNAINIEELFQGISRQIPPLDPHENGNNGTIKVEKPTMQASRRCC

pictilisib = compound: CS(=O)(=O)N1CCN(Cc2cc3nc(-c4cccc5[nH]ncc45)nc(N4CCOCC4)c3s2)CC1 [pictilisib]
Procedure, shortened: as §1

crizotinib = compound: C[C@@H](Oc1cc(-c2cnn(C3CCNCC3)c2)cnc1N)c1c(Cl)ccc(F)c1Cl [crizotinib]
Procedure, shortened: as §1

duvelisib = compound: C[C@H](Nc1ncnc2nc[nH]c12)c1cc2cccc(Cl)c2c(=O)n1-c1ccccc1 [duvelisib]
Procedure, shortened: as §1

tozasertib = compound: Cc1cc(Nc2cc(N3CCN(C)CC3)nc(Sc3ccc(NC(=O)C4CC4)cc3)n2)n[nH]1 [tozasertib]
Procedure, shortened: as §1

doramapimod = compound: Cc1ccc(-n2nc(C(C)(C)C)cc2NC(=O)Nc2ccc(OCCN3CCOCC3)c3ccccc23)cc1 [doramapimod]
Procedure, shortened: as §1

bafetinib = compound: Cc1ccc(NC(=O)c2ccc(CN3CC[C@H](N(C)C)C3)c(C(F)(F)F)c2)cc1Nc1nccc(-c2cncnc2)n1 [bafetinib]
Procedure, shortened: as §1

nilotinib = compound: Cc1cn(-c2cc(NC(=O)c3ccc(C)c(Nc4nccc(-c5cccnc5)n4)c3)cc(C(F)(F)F)c2)cn1 [nilotinib]
Procedure, shortened: as §1

[1] = compound: Cc1nc(Nc2n[nH]c3c2CN(C(=O)N[C@H](CN(C)C)c2ccccc2)C3(C)C)c2sccc2n1
Procedure, shortened: as §1

dasatinib = compound: Cc1nc(Nc2ncc(C(=O)Nc3c(C)cccc3Cl)s2)cc(N2CCN(CCO)CC2)n1 [dasatinib]
Procedure, shortened: as §1

[2] = compound: Cc1ncc(-c2ccnc(Nc3ccc(S(C)(=O)=O)cc3)n2)n1C(C)C
Procedure, shortened: as §1

[3] = compound: Cn1cc(-c2ccc3c(c2)CCN3C(=O)Cc2cccc(C(F)(F)F)c2)c2c(N)ncnc21
Procedure, shortened: as §1

quisinostat = compound: Cn1cc(CNCC2CCN(c3ncc(C(=O)NO)cn3)CC2)c2ccccc21 [quisinostat]
Procedure, shortened: as §1

tipifarnib = compound: Cn1cncc1[C@@](N)(c1ccc(Cl)cc1)c1ccc2c(c1)c(-c1cccc(Cl)c1)cc(=O)n2C [tipifarnib]
Procedure, shortened: as §1

[4] = compound: NC(=O)Nc1cc(-c2cccc(F)c2)sc1C(=O)N[C@H]1CCCNC1
Procedure, shortened: as §1

[5] = compound: NC(=O)c1cnc(N[C@@H]2CCCC[C@@H]2N)nc1Nc1cccc(-n2nccn2)c1
Procedure, shortened: as §1

[6] = compound: NC1(c2ccc(-c3nc4ccn5c(=O)[nH]nc5c4cc3-c3ccccc3)cc2)CCC1
Procedure, shortened: as §1

[7] = compound: C[C@H](C1=CC=C(C=C1)C(=O)NC2=C3C=CNC3=NC=C2)N
Procedure, shortened: as §1

gandotinib = compound: Cc1cc(Nc2cc(CN3CCOCC3)c3nc(C)c(Cc4ccc(Cl)cc4F)n3n2)n[nH]1 [gandotinib]
Procedure, shortened: as §1

[8] = compound: Cc1cccc(CC(=O)N2CCc3c2ccc(-c2cn(C)c4ncnc(N)c24)c3F)n1
Procedure, shortened: as §1

Measured: log2 fold change

RABAC1 (UniProt Q9UI14)
inactive: lapatinib 0.003 | pictilisib -0.083 | crizotinib -0.037 | duvelisib 0.068 | tozasertib 0.041 | doramapimod -0.1 | bafetinib -0.04 | nilotinib -0.018 | [1] 0.008 | dasatinib 0.049 | [2] 0.103 | [3] 0.026 | quisinostat -0.008 | tipifarnib 0.074 | [4] -0.066 | [5] 0.056 | [6] 0.071

RAC2 (UniProt P15153)
inactive: lapatinib -0.057 | pictilisib 0.016 | crizotinib -0.018 | [7] -0.05 | duvelisib -0.026 | gandotinib -0.025 | tozasertib -0.062 | doramapimod -0.014 | bafetinib -0.042 | [8] 0.031 | nilotinib -0.025 | [1] -0.076 | dasatinib -0.068 | [2] 0.015 | [3] -0.093 | quisinostat 0.021 | tipifarnib 0 | [4] 0.001 | [5] 0.04 | [6] 0.017

RAB7A (UniProt P51149)
inactive: lapatinib 0.02 | pictilisib -0.005 | crizotinib 0.04 | [7] -0.028 | duvelisib 0.034 | gandotinib -0.035 | tozasertib 0.026 | doramapimod -0.022 | bafetinib 0.083 | [8] 0.046 | nilotinib 0.032 | [1] -0.022 | dasatinib -0.022 | [2] -0.005 | [3] 0.001 | quisinostat 0.014 | tipifarnib -0.046 | [4] -0.02 | [5] -0.002 | [6] -0.018

R3HDM1 isoform 3 (UniProt Q15032)
inactive: lapatinib -0.099 | pictilisib -0.122 | crizotinib -0.012 | [7] 0.003 | duvelisib 0.01 | gandotinib -0.022 | tozasertib 0.095 | doramapimod 0.054 | bafetinib -0.023 | [8] -0.03 | dasatinib -0.07 | [3] 0.023 | quisinostat -0.115 | [4] -0.011 | [5] -0.094 | [6] -0.035

RAB33B (UniProt Q9H082)
inactive: lapatinib 0.073 | pictilisib 0.055 | [7] -0.152 | duvelisib 0.023 | gandotinib -0.013 | tozasertib 0.032 | bafetinib 0.007 | [8] 0.123 | nilotinib 0.012 | [1] -0.025 | dasatinib -0.076 | [2] 0 | [3] 0.009 | tipifarnib -0.061 | [5] -0.049 | [6] -0.058

RABGGTA (UniProt Q92696)
inactive: lapatinib -0.017 | pictilisib -0.006 | crizotinib -0.047 | [7] -0.065 | duvelisib 0.008 | gandotinib -0.004 | tozasertib 0.043 | doramapimod 0.027 | bafetinib -0.044 | [8] 0.029 | nilotinib -0.019 | [1] 0.003 | dasatinib 0.072 | [2] 0.037 | [3] 0.011 | quisinostat -0.041 | tipifarnib -0.017 | [4] 0.014 | [5] 0.006 | [6] -0.136

RAB40C (UniProt Q96S21)
inactive: lapatinib -0.111 | pictilisib -0.081 | crizotinib -0.075 | [7] -0.005 | gandotinib 0.05 | tozasertib -0.071 | doramapimod 0.075 | bafetinib 0.007 | [8] -0.027 | nilotinib -0.081 | [1] 0.083 | [2] -0.033 | quisinostat -0.059 | tipifarnib -0.067 | [4] 0.058 | [5] 0.026 | [6] 0.022

RAN (UniProt P62826)
inactive: lapatinib -0.027 | pictilisib 0.025 | crizotinib 0.018 | [7] 0.041 | duvelisib 0.015 | gandotinib -0.039 | tozasertib 0.023 | doramapimod -0.028 | bafetinib 0.122 | [8] -0.099 | nilotinib 0.012 | [1] -0.018 | dasatinib 0.021 | [2] -0.007 | [3] -0.019 | quisinostat 0.021 | tipifarnib 0.047 | [4] -0.039 | [5] 0.005 | [6] 0.019

RAB31 (UniProt Q13636)
inactive: lapatinib -0.001 | pictilisib -0.006 | crizotinib 0.004 | [7] -0.045 | duvelisib -0.058 | gandotinib 0.009 | tozasertib 0.024 | doramapimod -0.003 | bafetinib -0.014 | [8] 0.04 | nilotinib 0 | [1] 0.023 | dasatinib 0.033 | [2] 0.001 | [3] 0.04 | quisinostat 0.021 | tipifarnib -0.073 | [4] -0.052 | [5] 0.015 | [6] -0.022
